PubChem BioAssay AID743454 – Peter MacCallum Cancer Centre | 2014
Purpose: 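Genes whose loss kills vorinostat-resistant colon cancer cells under vorinostat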 (primary screen). Cells: human HCT116-VR colon cancer cells, selected for vorinostat resistance. Reagents: siRNA pool against human genes, 40 nM siRNA pool. Timing: vorinostat for 24 h, read-out about 72 h after transfection. Conditions: vorinostat at 2.5 µM final. Measured: 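Two measures, CellTiter-Fluor viability and luminescent caspase 3/7 activity, each as fold change against same-plate mock wells, mean of duplicates, then screen-wide robust z-score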. Scale: viability robust z-score: higher = more viable cells than screen typical; caspase robust z-score: higher = more caspase 3/7 activity than screen typical. Hit rule: 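Hits are knock-downs in viability class RV1/RV2 or caspase class CA1/CA2, excluding ones that killed cells in the no-drug cell-count arm; hits then retested with single siRNAs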.
The whole screen tested about 18,000 reagents; this is a random part of them. 450 of all reagents (2.5%) count as active. 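Single biological run; no consistent viability z cut-off exists, so the class columns, not z-scores, define the calls.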 A number with no mark means an inactive call.

BFSP2 (beaded filament structural protein 2) | viability hit class: no change; caspase hit class: no change; viability robust z-score: 0.05; caspase robust z-score: 1.65
CNGB1 (cyclic nucleotide gated channel subunit beta 1) | viability hit class: no change; caspase hit class: no change; viability robust z-score: 0.06; caspase robust z-score: 2.44
ZC3H7A (zinc finger CCCH-type containing 7A) | viability hit class: no change; caspase hit class: no change; viability robust z-score: -0.91; caspase robust z-score: -0.4
ZNF124 (zinc finger protein 124) | viability hit class: no change; caspase hit class: no change; viability robust z-score: -1.29; caspase robust z-score: -0.74
NOTCH4 (notch receptor 4) | viability hit class: no change; caspase hit class: no change; viability robust z-score: 1.09; caspase robust z-score: -1.17
TSPYL4 (TSPY like 4) | viability hit class: no change; caspase hit class: no change; viability robust z-score: -0.4; caspase robust z-score: 1.24
ACADS (acyl-CoA dehydrogenase short chain) | viability hit class: no change; caspase hit class: no change; viability robust z-score: 2.13; caspase robust z-score: 0.02
DUS1L (dihydrouridine synthase 1 like) | viability hit class: no change (active); caspase hit class: CA2 (caspase activation); viability robust z-score: -3; caspase robust z-score: 5.62
SYCE1 (synaptonemal complex central element protein 1) | viability hit class: no change; caspase hit class: no change; viability robust z-score: 1.5; caspase robust z-score: -0.56
TSR1 (TSR1 ribosome maturation factor) | viability hit class: no change; caspase hit class: no change; viability robust z-score: -0.84; caspase robust z-score: -1.38
RIMS4 (regulating synaptic membrane exocytosis 4) | viability hit class: no change; caspase hit class: no change; viability robust z-score: -0.88; caspase robust z-score: 1.74
DCBLD2 (discoidin, CUB and LCCL domain containing 2) | viability hit class: no change; caspase hit class: no change; viability robust z-score: 0.09; caspase robust z-score: -0.16
INHBC (inhibin subunit beta C) | viability hit class: no change; caspase hit class: no change; viability robust z-score: 0.05; caspase robust z-score: -0.16
NPPB (natriuretic peptide B) | viability hit class: no change; caspase hit class: no change; viability robust z-score: 0.38; caspase robust z-score: -0.86
AMBP (alpha-1-microglobulin/bikunin precursor) | viability hit class: no change; caspase hit class: no change; viability robust z-score: -2.23; caspase robust z-score: 1.64
MYBL2 (MYB proto-oncogene like 2) | viability hit class: no change; caspase hit class: no change; viability robust z-score: -1.21; caspase robust z-score: 0.36
OR52D1 (olfactory receptor family 52 subfamily D member 1) | viability hit class: no change; caspase hit class: no change; viability robust z-score: 0.05; caspase robust z-score: -0.7
ANO1 (anoctamin 1) | viability hit class: no change (active); caspase hit class: CA2 (caspase activation); viability robust z-score: -2.72; caspase robust z-score: 5.61
RWDD2B (RWD domain containing 2B) | viability hit class: no change; caspase hit class: no change; viability robust z-score: 1.86; caspase robust z-score: -0.46
MEI1 (meiotic double-stranded break formation protein 1) | viability hit class: no change; caspase hit class: no change; viability robust z-score: -1.19; caspase robust z-score: 0.18
SH2B1 (SH2B adaptor protein 1) | viability hit class: no change; caspase hit class: no change; viability robust z-score: 0.12; caspase robust z-score: 1.62
